The record followed here is the supplement of paper PMC4635364.

Structures can show the parent of a compound that is named as a salt. This is one part of the list. This data set is noisy: repeats of one test often differ as much as different tests do.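 Cells: ReNCell VM human fetal ventral-midbrain neural progenitors, differentiated mitogen-free. Blinded raters compared doublecortin-stained (early neurons) or tyrosine hydroxylase-stained (dopaminergic neurons) images with untreated wells, where 0 means no change. After repeats and both raters were averaged, compounds scoring 2 or above became hits for retesting.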

For the first assay, the system named is ReNCell VM. Briefly: neuronal differentiation score (DCX+ cell fraction vs untreated, manual image score) (score (-3 to 3)); higher = more neuronal differentiation. As to conditions: library: Tocriscreen; 2 uM; 2 weeks.
Take `CN1[C@@H]2CC[C@H]1CC(OC(=O)N1Cc3ccccc3NC1=O)C2` (some centres undefined) [DAU 5884 hydrochloride]: the neuronal differentiation score was inactive: 0. On the same count and under the same terms, the same measure for `CC(C(=O)OC1CC2CCC(C1)N2C)c1ccc(Br)cc1` (centres undefined) [PG-9 maleate]: inactive: 0; for `CN1CCN(c2ccc3ccccc3n2)CC1` [N-Methylquipazine dimaleate]: inactive: 0. The same measure, in the same setting: to `O=[N+]([O-])c1cc(O)c(O)c([N+](=O)[O-])c1` belongs inactive: 0; to `CN(C(=O)Cc1ccccc1)C(CN1CCCC1)c1ccccc1` (centres undefined) [N-MPPP Hydrochloride], inactive: 1. As for `CC12NC(Cc3ccccc31)c1ccccc12` (single isomer, unassigned; (+)) [(+)-MK 801 maleate], the neuronal differentiation score was inactive: 0.

Another assay relates to ReNCell VM. Briefly: dopaminergic neuron differentiation score (TH+ cell fraction vs untreated, manual image score) (score (0 to 3)); higher = more TH+ dopaminergic neuron differentiation. As to conditions: library: LOPAC; 2 uM; 4 weeks; BDNF 10 ng/ml + GDNF 10 ng/ml.
Regarding `CN1[C@@H]2CC[C@H]1C[C@@H](OC(=O)C(CO)c1ccccc1)C2` (some centres undefined) [Atropine sulfate], the “dopaminergic neuron differentiation score” value is inactive: 0. Consider `CCCN(CCC)C1CCc2ccc(O)cc2C1` (stereo not drawn) [R-(+)-7-Hydroxy-DPAT hydrobromide], for which the “dopaminergic neuron differentiation score” value is inactive: 0. Same read-out and setting: to `COc1ccc2[nH]cc(CCN)c2c1` [O-Methylserotonin hydrochloride] belongs inactive: 0; to `CNC(=O)OCC[N+](C)(C)C` [Methylcarbamylcholine chloride], inactive: 0. The same measure, in the same setting: the same measure for `O=C(O)[C@@H]1[C@H](C(=O)O)[C@H]2CC[C@@H]1O2` [Endothall]: inactive: 1; for `COC(=O)[C@@H](N)CCCNC(=N)N[N+](=O)[O-]` [NG-Nitro-L-arginine methyl ester hydrochloride]: inactive: 0; for `CN1[C@@H]2CC[C@H]1C[C@@H](OC(=O)[C@H](CO)c1ccccc1)C2` [L-Hyoscyamine]: inactive: 0.

Consider `O=C(O)Cc1cnc[nH]1` [Imidazole-4-acetic acid hydrochloride], for which the “dopaminergic neuron differentiation score” value is inactive: 0.

As to `O=P1(N(CCCl)CCCl)NCCCO1` (centres undefined) [Cyclophosphamide monohydrate], the “dopaminergic neuron differentiation score” value is inactive: 0.

The assay is the same for the next values; noted with them: library: Natural; 2 uM; 4 weeks; BDNF 10 ng/ml + GDNF 10 ng/ml.
Take `CC1CC(C)C(=O)C(C(O)CC2CC(=O)NC(=O)C2)C1` (centres undefined): the “dopaminergic neuron differentiation score” value was inactive: 0. On the same count and under the same terms, the same measure for `CC1=C2C(=CO[C@H](C)[C@H]2C)C(O)=C(C(=O)O)C1=O` [citrinin]: inactive: 0. Take `CN1CC[C@]23CCCC[C@H]2[C@H]1Cc1ccc(O)cc13` [17-methylmorphinan-3-ol]: the “dopaminergic neuron differentiation score” value was inactive: 0. The same measure, in the same setting: to `C1=CCC(c2cccnc2)NC1` (centres undefined) [1,2,3,6-Tetrahydro-[2,3']bipyridinyl] belongs inactive: 0.
